From PubChem BioAssay AID504834 (National Center for Advancing Translational Sciences (NCATS), 2011)
Values joined by “and” are separate entries in the source; they are usually repeats but may differ in a detail not shown here. Equal values may be shown once. The campaign covered roughly 320,000 compounds. About 22,000 (6.9%) were called active. This list was built around the results that the source calls inconclusive (neither active nor inactive); the mix of calls is not that of the screen. Calls follow the shape of the dose curve; as a rule, active = well fitted inhibition curve with a large enough effect; inconclusive = small, poorly fitted or top-dose-only effect, or another doubt; inactive = no such curve, though single readings can be large or run the other way. A potency beside an inconclusive call is a rough fit, not a confirmed value. Some structures have more than one record in an assay (separate samples or runs), and their calls can disagree.

Assay: Primary qHTS for delayed death inhibitors of the malarial parasite plastid, 96 hour incubation
Conditions: P. falciparum luciferase reporter growth; series mostly up to 28.7 µM
Outline: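 Delayed-death screen, second-generation endpoint: infected erythrocytes, 2% hematocrit, 0.05% parasitemia final; 96 hours at 37 C, 5% CO2; luciferase detection reagent; luminescence decrease equals reduced growth.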
Potency is read from the fitted curve at half-maximal effect.

SMILES | Potency
OCCC1CN(Cc2nc(-c3ccccc3)cs2)CCN1CCc1ccccc1 (configuration not stated) | inconclusive: 13.1 µM [inhibitor, single point]
COc1ccc(S(=O)(=O)N2CCN(C)CC2)c(C)c1 | inconclusive: 11.7 µM [inhibitor, single point]
Cc1nc(N2CCN(Cc3ccc4c(c3)OCO4)CC2)nc2c1C(=O)CC(c1ccco1)C2 (configuration not stated) | inconclusive: 18.5 µM [inhibitor, single point]
CC(Sc1nnc(C2CC2)n1C1CC1)C(=O)c1ccc(Br)cc1 (configuration not stated) | inconclusive: 18.5 µM [inhibitor, single point]
COc1ccc(Br)cc1CN(C)C(=O)CNC(=O)c1ccc2ccccc2c1 | inconclusive: 1.17 µM [inhibitor, partial curve, poor fit]
O=C(COC(=O)C1(c2ccc(Cl)cc2)CCCC1)NCc1ccco1 | inactive
COc1ccc(/C=N/NC(=O)c2sccc2OCc2ccc(F)cc2)cc1OC | active: 11.7 µM
CCOC(=O)COn1c(=O)c(-c2ccc(OC)cc2)[n+]([O-])c2ccccc21 | inactive
CCOC(=O)CN(C(=O)CSc1nnc(-c2ccncc2)n1CCCN(C)C)c1ccccc1 | inconclusive: 18.5 µM [inhibitor, single point]
COc1cccc(CNC(=O)c2ccc(C)c(NC3=NC4CS(=O)(=O)CC4S3)c2)c1 (configuration not stated) | inactive
C=CCn1c(SCC(=O)NCc2ccc3c(c2)OCO3)nc2scc(-c3ccccc3)c2c1=O | inconclusive: 2.94 µM [inhibitor, partial curve, poor fit]
O=C(O)CNS(=O)(=O)c1ccc2c3c(cccc13)C(=O)N2 | inconclusive: 16.5 µM [inhibitor, single point]
Cc1cc(C)c(S(=O)(=O)N2CCCCC2)c(C)c1N(C)S(=O)(=O)c1ccc(Cl)cc1 | inconclusive: 10.4 µM [inhibitor, partial curve, poor fit]
CCCCN(CCCC)CCCOC(=O)c1ccc(N)cc1 | inactive and inconclusive: 208 nM [inhibitor, full curve, poor fit]
COc1ccc(OCCNC(=O)c2ccccc2Cl)cc1 | inconclusive: 10.4 µM [inhibitor, single point]
COc1ccc(-c2cccc(C3CC=CC4C3C(=O)N(Cc3ccccc3)C4c3cc(C)ccc3F)c2)cc1 (configuration not stated) | active: 6.57 µM
C=CCNC(=O)C1CC(=O)N(c2ccc(Br)cc2)C1 (configuration not stated) | inconclusive: 0.828 µM [inhibitor, full curve]
CC(=O)Nc1cccc(NC(=O)c2ccc(C)c([N+](=O)[O-])c2)c1 | inactive
CCN1CCN(CCCNC(=O)c2ccc3c(c2)N(Cc2ccccc2)CCS3)CC1 | inconclusive: 13.1 µM [inhibitor, single point]
COc1ccccc1CNC(=O)c1ccccc1OCc1ccc(F)cc1 | inconclusive: 9.28 µM [inhibitor, single point]
CCN1CCN(c2ccc(S(=O)(=O)N3CCCCC3)cc2NC(=O)c2cccc(C)c2[N+](=O)[O-])CC1 | inconclusive: 13.1 µM [inhibitor, single point]

SMILES | Potency
COc1ccc(C(CNC(=O)c2ccc(NS(=O)(=O)c3cccc([N+](=O)[O-])c3)cc2)N2CCOCC2)cc1 (configuration not stated) | inconclusive: 10.4 µM [inhibitor, partial curve]
CC(=O)c1c(C)[nH]c(C(=O)NCCCN2CCCC2)c1C | inconclusive: 0.0928 µM [inhibitor, full curve, poor fit]
CCCS(=O)(=O)n1nc(-c2ccc(OC)cc2)cc1N | active: 10.4 µM
O=C(Nc1cccc(Br)c1)c1ccccc1-c1ccccc1 | inconclusive: 11.7 µM [inhibitor, single point]
CC1CCc2c(nc3ncnn3c2N2CCN(c3ccccc3F)CC2)C1 (configuration not stated) | inconclusive: 13.1 µM [inhibitor, partial curve]
Cc1ccc(C)c(Nc2nc3c(S(=O)(=O)c4ccccc4)nnn3c3ccccc23)c1 | inconclusive: 3.29 µM [inhibitor, single point]
Cc1nn(Cc2ccccc2)c(C)c1NC(=O)CSc1nc2c(c(C(F)(F)F)n1)CCc1ccccc1-2 | active: 8.28 µM
Cc1ccc(C(=O)CC(C(=O)O)c2cn(CCC#N)c3ccccc23)cc1 (configuration not stated) | inconclusive: 11.7 µM [inhibitor, partial curve, poor fit]
Cc1cc(C)nc(-n2nc(C)cc2NC(=O)c2cccc(S(=O)(=O)N3CCCCC3)c2)n1 | inconclusive: 8.28 µM [inhibitor, partial curve, poor fit]
COc1ccc(C)cc1S(=O)(=O)N1CCC2(CC1)OCCN2S(=O)(=O)c1cccs1 | inconclusive: 18.5 µM [inhibitor, single point]
CSc1sc(C(=O)NNC(C)=O)c2c1C=CCC2 | inconclusive: 9.28 µM [inhibitor, partial curve, poor fit]
CN1CCC2(CC1)N=C(c1ccc(F)cc1)C(=S)N2 | inconclusive: 2.62 µM [inhibitor, partial curve, poor fit]
COc1ccc(CCN2CC(C(=O)NCc3cccc4[nH]ccc34)CCC2=O)cc1 (configuration not stated) | active: 9.28 µM
CCOC(=O)C1CCCN(C(=O)C2CCN(S(=O)(=O)CC)CC2)C1 (configuration not stated) | inconclusive: 4.65 µM [inhibitor, single point]
CC(=O)c1sc(N)nc1C | inactive
COc1cc(NC(=O)Cc2nn(C)c(=O)c3ccccc23)cc(OC)c1OC | active: 10.4 µM
Cc1nn(C)c(C(=O)N2CCc3ccccc32)c1Cl | inconclusive: 18.5 µM [inhibitor, single point]
CC[N+](C)(CC)CCOC(=O)C1c2ccccc2Oc2ccccc21 | inactive and active: 10.4 µM
COc1ccc(C(=O)NCC2OCCc3ccccc32)cc1 (configuration not stated) | inactive
COc1ccc2c(c1)c1nc(SCC(C)C)n(CCO)c(=O)c1n2C | inconclusive: 9.28 µM [inhibitor, partial curve, poor fit]
O=C(CN(C(=O)c1csnn1)c1ccc(F)c(Cl)c1)NCc1ccccc1 | inconclusive: 6.57 µM [inhibitor, partial curve]

Reformatted as a markdown table: three of the compounds above.

| SMILES | Potency |
| --- | --- |
| CN1CCC2(CC1)N=C(c1ccc(F)cc1)C(=S)N2 | inconclusive: 2.62 µM [inhibitor, partial curve, poor fit] |
| COc1ccc(CCN2CC(C(=O)NCc3cccc4[nH]ccc34)CCC2=O)cc1 (configuration not stated) | active: 9.28 µM |
| CCOC(=O)C1CCCN(C(=O)C2CCN(S(=O)(=O)CC)CC2)C1 (configuration not stated) | inconclusive: 4.65 µM [inhibitor, single point] |
